PubChem BioAssay AID1224827, NIAID | 2016
In all, the deposit lists about 3,800 reagents; shown is a part drawn at random. About 2,200 of all reagents (57%) count as active. 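Active means a strong reporter change in either direction; calls are per siRNA, not per gene; qiagen siRNAs gave weaker effects.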 The numbers tell different reagents against one gene apart. Reagent sequences are not shown.

Purpose: 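Identify regulators of the macrophage TNF-alpha response to bacterial LPS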 (follow-up of hits)
Cells: RAW264.7 G9 mouse macrophage reporter clone
Reagent: single siRNA against mouse genes, 100 nM siRNA
Duration: siRNA for 2 days, then LPS about 16 h
Conditions: bacterial lipopolysaccharide (LPS), 10 ng/ml, cells fixed after overnight (about 16 h) stimulation
Measured: 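Imaged nuclear TNF reporter intensity, background removed, scaled per plate and to non-targeting control wells, as z-scores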
Scale: TNF reporter z-score, mean and TNF reporter z-score: higher = stronger Tnf promoter reporter signal; gene median z, three same-vendor siRNAs: higher = stronger Tnf reporter signal for the gene
Hit rule: 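An siRNA is called active when its mean z-score over replicates is at least +2 or at most -2; control wells get no call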

| gene | siRNA no. | TNF reporter z-score, mean | gene median z, three same-vendor siRNAs | TNF reporter z-score, repeat 1 | TNF reporter z-score, repeat 2 | Call |
| --- | --- | --- | --- | --- | --- | --- |
| Calm4 (GeneID 80796) | 1 | 6.21 | -1.81 | 3.64 | 8.77 | active |
| Calm4 (GeneID 80796) | 2 | -1.81 | -1.81 | -1.92 | -1.71 | inactive |
| Calm4 (GeneID 80796) | 3 | -3.66 | -1.81 | -3.81 | -3.5 | active |
| Calm4 (GeneID 80796) | 4 | 5.64 | 0.531 | 8.3 | 2.98 | active |
| Calm4 (GeneID 80796) | 5 | 0.524 | 0.531 | 2.53 | -1.48 | inactive |
| Calm4 (GeneID 80796) | 6 | -1.93 | 0.531 | -2.39 | -1.46 | inactive |
| Ppm1l (GeneID 242083) | 1 | -2.95 | -3.48 | -3.15 | -2.76 | active |
| Ppm1l (GeneID 242083) | 2 | -3.38 | -3.48 | -3.8 | -2.95 | active |
| Ppm1l (GeneID 242083) | 3 | -5.26 | -3.48 | -4.73 | -5.78 | active |
| Ppm1l (GeneID 242083) | 4 | 1.87 | 1.55 | 2.71 | 1.03 | inactive |
| Ppm1l (GeneID 242083) | 5 | 1.12 | 1.55 | 2.07 | 0.176 | inactive |
| Ppm1l (GeneID 242083) | 6 | 0.793 | 1.55 | 2.51 | -0.919 | inactive |

Not a retest: entries from further up.
| gene | siRNA no. | TNF reporter z-score, mean | gene median z, three same-vendor siRNAs | TNF reporter z-score, repeat 1 | TNF reporter z-score, repeat 2 | Call |
| --- | --- | --- | --- | --- | --- | --- |
| Ppm1l (GeneID 242083) | 2 | -3.38 | -3.48 | -3.8 | -2.95 | active |
| Ppm1l (GeneID 242083) | 3 | -5.26 | -3.48 | -4.73 | -5.78 | active |

The list goes on:
| gene | siRNA no. | TNF reporter z-score, mean | gene median z, three same-vendor siRNAs | TNF reporter z-score, repeat 1 | TNF reporter z-score, repeat 2 | Call |
| --- | --- | --- | --- | --- | --- | --- |
| Tacc1 (GeneID 320165) | 1 | -3.66 | -4.19 | -3.64 | -3.67 | active |
| Tacc1 (GeneID 320165) | 2 | -4.2 | -4.19 | -4.06 | -4.34 | active |
| Tacc1 (GeneID 320165) | 3 | -4.43 | -4.19 | -4.55 | -4.31 | active |
| Tacc1 (GeneID 320165) | 4 | 4.96 | 0.788 | 7.73 | 2.18 | active |
| Tacc1 (GeneID 320165) | 5 | 0.229 | 0.788 | 1.07 | -0.615 | inactive |
| Tacc1 (GeneID 320165) | 6 | -0.438 | 0.788 | 0.503 | -1.38 | inactive |
| Cldn6 (GeneID 54419) | 1 | 3.12 | -2.74 | 0.271 | 5.98 | active |
| Cldn6 (GeneID 54419) | 2 | -2.74 | -2.74 | -1.88 | -3.6 | active |
| Cldn6 (GeneID 54419) | 3 | -5.24 | -2.74 | -4.59 | -5.89 | active |
| Cldn6 (GeneID 54419) | 4 | 8.39 | -1.17 | 13.7 | 3.11 | active |
| Cldn6 (GeneID 54419) | 5 | -2.24 | -1.17 | -3.2 | -1.27 | active |
| Cldn6 (GeneID 54419) | 6 | -2.19 | -1.17 | -1.06 | -3.33 | active |
